Measured values: paper PMC12290104, “PEAK1 maintains tight junctions in intestinal epithelial cells and resists colitis by inhibiting autophagy-mediated ZO-1 degradation” (Nature Communications, 2025)
Results are given in words; binding and its absence hold for the method and conditions named. In cells and extracts the contact can be indirect. These calls come from enrichment with a bait or labelling near it, and not all partners need be listed.

Amino acid sequences for entries named in this document (tags omitted).
UniProt Q9H792: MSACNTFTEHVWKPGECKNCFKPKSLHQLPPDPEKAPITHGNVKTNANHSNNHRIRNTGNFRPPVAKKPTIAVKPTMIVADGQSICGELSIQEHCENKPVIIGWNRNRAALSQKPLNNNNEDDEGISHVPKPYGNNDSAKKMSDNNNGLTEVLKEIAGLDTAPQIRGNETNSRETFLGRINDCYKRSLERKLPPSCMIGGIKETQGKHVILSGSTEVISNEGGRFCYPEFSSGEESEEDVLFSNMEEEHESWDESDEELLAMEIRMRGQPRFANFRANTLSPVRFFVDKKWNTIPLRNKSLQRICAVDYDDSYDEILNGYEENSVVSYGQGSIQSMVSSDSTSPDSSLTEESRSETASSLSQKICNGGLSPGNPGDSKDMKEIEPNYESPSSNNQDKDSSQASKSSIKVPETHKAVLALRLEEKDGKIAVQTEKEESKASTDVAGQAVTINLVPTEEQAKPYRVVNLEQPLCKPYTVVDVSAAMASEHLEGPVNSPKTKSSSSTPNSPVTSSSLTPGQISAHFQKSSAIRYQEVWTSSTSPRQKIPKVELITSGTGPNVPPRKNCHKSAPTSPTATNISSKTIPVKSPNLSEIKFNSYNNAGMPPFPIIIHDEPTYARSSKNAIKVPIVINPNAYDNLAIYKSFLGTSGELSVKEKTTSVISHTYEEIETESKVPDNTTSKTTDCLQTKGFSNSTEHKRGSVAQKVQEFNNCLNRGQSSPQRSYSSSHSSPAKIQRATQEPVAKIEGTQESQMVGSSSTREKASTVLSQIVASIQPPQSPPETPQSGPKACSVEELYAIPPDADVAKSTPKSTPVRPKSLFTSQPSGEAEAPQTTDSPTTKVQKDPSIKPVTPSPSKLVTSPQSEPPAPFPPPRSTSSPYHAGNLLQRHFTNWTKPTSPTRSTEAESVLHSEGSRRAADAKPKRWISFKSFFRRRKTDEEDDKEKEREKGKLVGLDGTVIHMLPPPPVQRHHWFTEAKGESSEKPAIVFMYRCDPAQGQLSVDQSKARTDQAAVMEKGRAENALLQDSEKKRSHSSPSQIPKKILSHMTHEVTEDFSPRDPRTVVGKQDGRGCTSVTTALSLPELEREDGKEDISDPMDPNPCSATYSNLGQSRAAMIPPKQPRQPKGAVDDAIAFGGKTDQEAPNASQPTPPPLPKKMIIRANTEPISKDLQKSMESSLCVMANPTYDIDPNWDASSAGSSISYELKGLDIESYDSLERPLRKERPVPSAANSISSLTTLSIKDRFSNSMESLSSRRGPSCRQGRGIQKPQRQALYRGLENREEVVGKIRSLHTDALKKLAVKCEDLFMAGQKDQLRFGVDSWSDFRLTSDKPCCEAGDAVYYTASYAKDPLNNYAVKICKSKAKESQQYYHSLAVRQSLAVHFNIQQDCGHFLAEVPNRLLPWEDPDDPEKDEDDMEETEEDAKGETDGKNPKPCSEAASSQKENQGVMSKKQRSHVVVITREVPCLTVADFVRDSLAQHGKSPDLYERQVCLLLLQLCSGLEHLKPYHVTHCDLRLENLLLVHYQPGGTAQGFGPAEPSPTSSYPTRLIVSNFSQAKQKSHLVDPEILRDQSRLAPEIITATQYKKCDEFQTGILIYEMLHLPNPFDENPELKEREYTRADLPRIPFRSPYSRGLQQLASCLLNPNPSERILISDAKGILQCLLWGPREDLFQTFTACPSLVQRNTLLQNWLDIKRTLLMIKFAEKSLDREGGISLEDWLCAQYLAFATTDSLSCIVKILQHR
UniProt P41240: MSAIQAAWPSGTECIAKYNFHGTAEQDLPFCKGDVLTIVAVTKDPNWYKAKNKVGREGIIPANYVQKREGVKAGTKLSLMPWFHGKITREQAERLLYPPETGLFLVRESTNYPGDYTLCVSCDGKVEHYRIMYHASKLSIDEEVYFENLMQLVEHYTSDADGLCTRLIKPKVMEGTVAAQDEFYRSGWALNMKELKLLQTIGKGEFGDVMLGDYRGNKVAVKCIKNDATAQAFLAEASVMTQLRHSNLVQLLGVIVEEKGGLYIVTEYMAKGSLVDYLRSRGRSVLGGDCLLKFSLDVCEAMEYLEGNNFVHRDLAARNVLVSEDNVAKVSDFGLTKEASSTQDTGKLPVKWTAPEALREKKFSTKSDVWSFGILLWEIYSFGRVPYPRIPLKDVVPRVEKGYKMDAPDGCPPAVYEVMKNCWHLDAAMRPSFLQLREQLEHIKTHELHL
UniProt Q07157: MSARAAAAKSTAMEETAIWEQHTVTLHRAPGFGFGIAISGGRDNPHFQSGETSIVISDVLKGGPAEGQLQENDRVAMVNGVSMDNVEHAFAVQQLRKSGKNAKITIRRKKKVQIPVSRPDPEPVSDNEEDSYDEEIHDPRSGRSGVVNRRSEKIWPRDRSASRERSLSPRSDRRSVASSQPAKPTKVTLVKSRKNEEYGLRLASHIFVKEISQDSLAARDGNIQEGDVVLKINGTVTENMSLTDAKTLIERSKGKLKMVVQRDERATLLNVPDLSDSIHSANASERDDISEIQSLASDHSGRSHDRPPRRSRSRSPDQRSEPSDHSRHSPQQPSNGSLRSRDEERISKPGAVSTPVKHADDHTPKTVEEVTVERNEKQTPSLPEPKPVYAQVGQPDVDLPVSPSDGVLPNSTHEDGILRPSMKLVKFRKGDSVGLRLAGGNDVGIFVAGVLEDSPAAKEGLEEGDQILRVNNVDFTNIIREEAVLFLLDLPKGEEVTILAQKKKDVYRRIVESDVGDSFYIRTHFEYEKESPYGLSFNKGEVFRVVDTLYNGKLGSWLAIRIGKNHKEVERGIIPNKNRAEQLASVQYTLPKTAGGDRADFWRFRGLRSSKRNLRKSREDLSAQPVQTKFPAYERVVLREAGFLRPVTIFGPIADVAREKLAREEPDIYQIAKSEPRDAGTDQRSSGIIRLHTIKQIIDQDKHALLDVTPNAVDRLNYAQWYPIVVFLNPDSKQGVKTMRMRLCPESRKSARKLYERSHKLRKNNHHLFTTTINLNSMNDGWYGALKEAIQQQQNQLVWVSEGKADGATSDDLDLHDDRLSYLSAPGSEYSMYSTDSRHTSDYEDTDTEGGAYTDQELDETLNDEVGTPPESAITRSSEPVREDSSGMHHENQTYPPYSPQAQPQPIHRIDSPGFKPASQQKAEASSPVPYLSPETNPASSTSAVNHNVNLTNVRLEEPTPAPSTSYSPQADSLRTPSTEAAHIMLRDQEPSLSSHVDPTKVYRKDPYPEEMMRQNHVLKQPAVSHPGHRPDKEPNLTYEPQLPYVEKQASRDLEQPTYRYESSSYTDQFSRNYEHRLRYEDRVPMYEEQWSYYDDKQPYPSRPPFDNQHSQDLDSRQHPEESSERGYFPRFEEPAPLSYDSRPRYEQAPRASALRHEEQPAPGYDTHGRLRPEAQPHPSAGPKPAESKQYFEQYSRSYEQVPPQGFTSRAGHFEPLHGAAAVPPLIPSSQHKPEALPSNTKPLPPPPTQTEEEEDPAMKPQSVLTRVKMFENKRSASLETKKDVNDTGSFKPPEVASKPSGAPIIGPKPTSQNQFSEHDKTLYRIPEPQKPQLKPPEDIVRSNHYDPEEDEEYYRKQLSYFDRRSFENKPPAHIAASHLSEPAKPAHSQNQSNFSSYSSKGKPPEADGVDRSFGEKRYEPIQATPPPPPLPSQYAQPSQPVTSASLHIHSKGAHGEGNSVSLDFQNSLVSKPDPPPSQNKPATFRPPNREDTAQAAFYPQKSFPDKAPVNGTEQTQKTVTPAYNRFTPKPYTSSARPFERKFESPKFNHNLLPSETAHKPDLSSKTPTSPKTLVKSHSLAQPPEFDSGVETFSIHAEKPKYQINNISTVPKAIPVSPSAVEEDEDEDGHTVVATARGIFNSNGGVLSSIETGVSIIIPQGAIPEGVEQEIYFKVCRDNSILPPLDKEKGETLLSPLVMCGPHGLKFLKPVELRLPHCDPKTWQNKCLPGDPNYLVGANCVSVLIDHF

Molecular target: GFP-PEAK1 (human) (UniProt Q9H792)
Assay: affinity purification with mass spectrometry; GFP-PEAK1 overexpressed in HEK293T cells, immunoprecipitated; gel bands digested and read by LC-MS/MS

binding | Molecule
binds | CSK in HEK293T cell lysate (from UniProt P41240 1-450)
binds | ZO-1 in HEK293T cell lysate (from UniProt Q07157 1-1748)
binds | Occludin in HEK293T cell lysate (protein, UniProt Q16625 1-522) MSSRPLESPPPYRPDEFKPNHYAPSNDIYGGEMHVRPMLSQPAYSFYPEDEILHFYKWTSPPGVIRILSMLIIVMCIAIFACVASTLAWDRGYGTSLLGGSVGYPYGGSGFGSYGSGYGYGYGYGYGYGGYTDPRAAKGFMLAMAAFCFIAALVIFVTSVIRSEMSRTRRYYLSVIIVSAILGIMVFIATIVYIMGVNPTAQSSGSLYGSQIYALCNQFYTPAATGLYVDQYLYHYCVVDPQEAIAIVLGFMIIVAFALIIFFAVKTRRKMDRYDKSNILWDKEHIYDEQPPNVEEWVKNVSAGTQDVPSPPSDYVERVDSPMAYSSNGKVNDKRFYPESSYKSTPVPEVVQELPLTSPVDDFRQPRYSSGGNFETPSKRAPAKGRAGRSKRTEQDHYETDYTTGGESCDELEEDWIREYPPITSDQQRQLYKRNFDTGLQEYKSLQSELDEINKELSRLDKELDDYREESEEYMAAADEYNRLKQVKGSADYKSKKNHCKQLKSKLSHIKKMVGDYDRQKT
